Results: ChEMBL document CHEMBL1777782, “Indole 5-carboxamide Thumb Pocket I inhibitors of HCV NS5B polymerase with nanomolar potency in cell-based subgenomic replicons (part 2): central amino acid linker and right-hand-side SAR studies” (Bioorg Med Chem Lett, 2011)
Values after ≈ are worked out from the molar mass of the structure shown.

Key:
[1] = Permeability across apical to basolateral side in human Caco2 cells; conditions: Caco-2
[2] = Selectivity ratio for polio virus RNA-dependent RNA polymerase to HCV 1b NS5B RNA dependent RNA polymerase
[3] = Selectivity ratio for mammalian DNA-dependent RNA polymerase II to HCV 1b NS5B RNA dependent RNA polymerase
physchem = conditions: buffer, pH 7.2

Cc1c(C(=O)O)sc2ccc(NC(=O)[C@]3(NC(=O)c4ccc5c(C6CCCCC6)c(-c6ccccn6)n(C)c5c4)CCCNC3)cc12
Papp A→B [1]: < 0.1 ×10⁻⁶ cm/s
Ratio [2]: > 150
Ratio [3]: > 150
solubility thermodynamic at 24 h (physchem): 1 µg/mL (≈ 1.54 µM)
